# Assay results from patent publication US7081465B2, “Alpha-substituted naphthyloxy omega-substituted alky/aryl amino-substituted alkane derivatives as agent for treatment or prophylaxis of diabetes and related metabolic disorders” (Council of Scientific and Industrial Research, priority 2003, dated 2006).
# Some results were stated once for a whole list of compounds, not compound by compound.
# Test system: STZ-induced diabetic rats
# Assay: Streptozotocin-induced diabetic rat model, single-dose effect on blood glucose
# Format: in vivo, Sprague Dawley rats
# Conditions: 100 mg/kg
# Experimental: Streptozotocin-Induced Diabetic Rat Model:
# Single-dose effect; Sprague Dawley strain male albino rats of average body weight 160±20 g were selected for this study. A calculated amount of the fresh solution of STZ dissolved in 100 mM citrate buffer (ph 4.5) was injected to overnight fasted rats (60 mg/Kg) intraperitoneally. Blood was checked for glucose content 48 h later by glucometer & animals showing blood glucose profile above 250 mg/dl were selected and were divided into different groups. Blood-glucose levels were again tested at 1, 2, 3, 4, 5, 6, 7 and 24 h post test sample/drug administration. Food but not water was withdrawn from the cages during the experiment.
# The effect of Test compound 1 and standard antidiabetic drug Glybenclamide and gliclazide on blood glucose lowering in STZ-induced diabetic rats were determined. […] The lowering started from 1-hour that persisted up to 7-hours post drug administration.
structure (smiles),measurement,value
Cc1ccc(S(=O)(=O)NC(=O)NN2CC3CCCC3C2)cc1 (stereo not drawn) [Gliclazide],blood glucose lowering persisted up to (post drug administration),up to 7 hours
COc1ccc(Cl)cc1C(=O)NCCc1ccc(S(=O)(=O)NC(=O)NC2CCCCC2)cc1 [Glybenclamide],blood glucose lowering persisted up to (post drug administration),up to 7 hours
"COc1ccc(NCCCOc2ccc3ccccc3c2)cc1 [Compound 1, N-(4-Methoxyphenyl)-[3-(naphthalen-2-yloxy)propyl]amine]",blood glucose lowering persisted up to (post drug administration),up to 7 hours
